# Assay results: patent publication US9937227B2, “Humanin, analogs and cancer treatment methods and uses thereof” (LOS ANGELES BIOMEDICAL RESEARCH INSTITUTE AT HARBOR-UCLA …, priority 2014, dated 2018)
# Where two headings read alike, the source gives them in different places. Not every detail of the peptide structures is certain; ends, links or a residue may be inferred. Peptide text beside a SMILES is read from it.
# What was measured:
# [1] = tested on: male germ cells; format: in vivo, mouse
# Description: (§1) A total of 25 young adult mice (10-12 weeks) were randomly divided into 5 groups (n=5 per group). Five mice were used as control. Twenty mice were inoculated intravenously with B16 murine melanoma cells (2×10^5 cells/mouse). Among these 20 tumor-inoculated mice, 5 mice received no further treatment. After one week, the remaining 15 mice were divided into 3 groups and injected with: 1) HNG daily IP (5 mg/Kg body weight) for 2 weeks; 2) CP (200 mg/Kg body weight IP single injection); 3) combined CP with HNG treatment (same doses as above). All mice were sacrificed 3 weeks after tumor inoculation, and 2 weeks after HNG and/or CP treatment. The animals were sacrificed with 5% pentobarbital (200 mg/kg body weight) IP injection after which blood was collected from the right atrium of the heart. One of the testes from each mouse was immersed fixed in Bouin's solution, and the mice were perfused with saline and subsequently perfuse-fixed with 5% glutaraldehyde in 0.05 M cacodylate buffer (pH 7.4). The lungs were dissected out and post fixed in 5% glutaraldehyde solution for 24 hours and stored in cacodylate buffer at 4° C. for the subsequent tumor count (Lue, et al., 2010; Lue, et al., 2009).
# [2] = tested on: ovaries; format: in vivo; conditions: HNG 5 mg/kg/day + CP 100 mg/Kg
# Description: A mouse mammary cancer model was used which utilizes 4T1 cells transfected with the luciferase gene. Growth and size of 4T1 mammary tumors were detected by bioluminescence imaging (IVIS Luminia II, Perkin Elmer, Waltham, Mass.). Mice (n=5 to 7 per group) were inoculated with 1×10^6 4T1 cells into the right third mammary gland, and 7 days later they were left untreated or treated with HNG (5 mg/kg/day IP), CP (100 mg/Kg single IP) or HNG+CP for 14 days. Animals were sacrificed and both ovaries were removed from each mouse on day 14 after the start of treatment. Serial 5-micrometer sections were made. Every 5th section was examined and the number of primordial, primary, and secondary follicles counted (Kim S Y, et al., 2013; Bristol-Gould S K, et al., 2006; Roti Roti E C, et al., 2012). In addition, TUNEL staining for apoptotic cells and oocytes was quantified (Perez G I, et al., 1997; Ben-Aharon I, et al., 2010).
# [3] = tested on: germ cells; conditions: CP 200 mg/kg + HNG 5 mg/kg IP, 24 hours
# Description: To examine the protective effects of HNG on germ cells, adult mice were treated with vehicle (control); HNG (5 mg/kg/BW, intraperitoneal injection IP); CP (200 mg/kg/BW, IP); and CP+HNG for 24 hours.
# [4] = tested on: B16 murine melanoma cells; experiment: Metastatic lung tumors in mouse B16 melanoma model (Experiments 3 and 4); format: in vivo
# Description: as §1
# Experiment 3 was repeated after inoculation of B16 melanoma tumor at week 1 and then treated with the following treatment starting at week 2 (n=5 mice per group): 1). No treatment; 2). HNG IP injections 5 mg/Kg daily; 3) CP 200 mg/Kg single IP injection; 4) HNG 5 mg/Kg/day+CP; 5). HNG IP injections 15 mg/Kg daily; and 6). HNG 15 mg/Kg/day+CP. All animals were euthanized and perfused with 4% paraformaldehyde at the end of week 3. Lungs and testes were collected and processed as in experiment 3. Methods
# B16 melanoma tumors in the lung were quantified by counting the number of tumors on the surface of the lungs under stereomicroscopy (Collisson, et al., 2003; Craft, et al., 2005). The size of the tumor was measured using histomorphometry and expressed as average size of tumor. The appearance of the melanoma cells were reviewed and characterized by an expert pathologist.
# [5] = tested on: DAOY human pediatric medulloblastoma cells; experiment: DAOY medulloblastoma subcutaneous tumors in SCID mice; format: in vivo; conditions: HNG 5 mg/Kg BW/day (3 days pretreatment + 5 days) + TMZ
# [6] = tested on: male germ cells; conditions: for CP-induced apoptosis, effect of concomitant HN: HN 40 mg/Kg + CP 200 mg/Kg
# Description: Young adult mice (12-13 weeks) were randomly divided into 4 groups with 4 or 5 mice per group and received an IP injection: control (Con) (saline), HN (40 mg/Kg BW), CP (200 mg/Kg BW), and the combination of CP+HN. These experiments were repeated four times. In the CP+HN group, mice received an injection of HN followed by an injection of CP about 15 minutes later. Twenty-four hours after injections animals were sacrificed using 5% pentobarbital (200 mg/kg BW) IP injection. Blood was collected and one testis was removed, weighed and frozen in liquid nitrogen. The mouse was next perfused with saline and then subsequently perfuse-fixed with Bouin's solution as previously described and apoptosis was assessed by TUNEL assay (Lue, et al., 2009).
# For detection of apoptosis in testicular sections, the paraffin embedded testis tissue was cut into 5 micron sections and stained with the TdT-mediated dUTP nick-end labeling assay (TUNEL Apoptosis Detection Kit, Millipore, Billerica, Mass.) to detect apoptosis of germ cells in the testis (Lue, et al., 2009). Testicular sections assayed by TUNEL were examined under a light microscope and the apoptotic germ cells were blindly and manually counted. The seminiferous tubules in the testis section under the microscope were grouped as stages IX-IV (early-late stages of spermatogenesis) and V-VIII (middle stages of spermatogenesis). Germ cell apoptosis was quantified as the number of seminiferous tubules containing apoptotic spermatogonia, spermatoctyes, round spermatids and spermatozoa per 100 seminiferous tubules (Drumond, et al., 2011).
# [7] = tested on: Leydig cells; experiment: Histology of rat testes: Leydig cells; conditions: HN 3 days after EDS pre-treatment
# [8] = tested on: male germ cells
compound,measurement,setting,value
CC[C@H](C)[C@H](NC(=O)[C@H](CCC(=O)O)NC(=O)CNC(=O)[C@@H](NC(=O)[C@H](CC(C)C)NC(=O)[C@H](CC(C)C)NC(=O)[C@H](CC(C)C)NC(=O)[C@H](CC(C)C)NC(=O)[C@H](CS)NC(=O)[C@H](CO)NC(=O)[C@H](Cc1ccccc1)NC(=O)CNC(=O)[C@H](CCCNC(=N)N)NC(=O)[C@@H]1CCCN1C(=O)[C@H](C)NC(=O)[C@@H](N)CCSC)[C@@H](C)O)C(=O)N[C@@H](CC(=O)O)C(=O)N[C@@H](CC(C)C)C(=O)N1CCC[C@H]1C(=O)N[C@H](C(=O)N[C@@H](CCCCN)C(=O)N[C@@H](CCCNC(=N)N)C(=O)N[C@@H](CCCNC(=N)N)C(=O)N[C@@H](C)C(=O)O)C(C)C [HNG] (H-MAPRGFSCLLLLTGEIDLPVKRRA-OH; N-terminus and C-terminus assumed),"germ cell apoptosis in tumor-bearing mice, HNG alone",[1]; HNG 5 mg/Kg daily IP 2 weeks,trend to mitigate
same,"testis weight, addition of HNG to CP treatment",[1]; HNG 5 mg/Kg daily IP 2 weeks + CP 200 mg/Kg,failed to restore
same,"CP-induced germ cell apoptosis, effect of HNG",[1]; daily HNG 5 mg/Kg IP for 2 weeks + CP 200 mg/Kg,attenuated
same,"CP-induced decrease in follicles, effect of HNG",[2],appeared to reverse
same,"CP-induced apoptosis, effect of HNG",[3],significantly decreased
same,number of metastatic tumors on the surface of the lungs vs non-treated tumor-bearing mice,"[4]; Experiment 3, HNG 5 mg/Kg daily IP 2 weeks or CP 200 mg/Kg single IP",appeared to decrease
same,size of the melanoma metastasis on the surface of the lungs,"[4]; Experiment 3, HNG 5 mg/Kg daily or CP 200 mg/Kg single IP",no effect
same,"number of tumors, HNG added concomitantly with CP vs either treatment alone","[4]; Experiment 4, HNG 5 mg/Kg BW + CP",significantly decreased the number of tumors than either treatment alone
same,number of lung tumors vs non-treated tumor-bearing mice,"[4]; Experiment 4, HNG 5 mg/kg BW daily or CP 200 mg/Kg single IP",significantly decreased the number of lung tumors
same,"number of tumors, HNG added concomitantly with CP vs either treatment alone","[4]; Experiment 4, HNG 15 mg/Kg BW + CP",significantly decreased the number of tumors than either treatment alone
same,number of lung tumors vs non-treated tumor-bearing mice,"[4]; Experiment 4, HNG 15 mg/kg BW daily",significantly decreased the number of lung tumors
same,size of the lung tumors vs non-treated,"[4]; Experiment 4, HNG 5 and 15 mg/kg BW, CP 200 mg/Kg",not size of the tumors
same,lung metastatic melanoma histology (differentiation of melanoma cells),"[4]; HNG 5 mg/kg BW, CP, or combination",did not change the histology
same,"suppression of tumor growth by TMZ, addition of HNG",[5],did not alter
CC[C@H](C)[C@H](NC(=O)[C@H](CCC(=O)O)NC(=O)[C@H](CO)NC(=O)[C@@H](NC(=O)[C@H](CC(C)C)NC(=O)[C@H](CC(C)C)NC(=O)[C@H](CC(C)C)NC(=O)[C@H](CC(C)C)NC(=O)[C@H](CS)NC(=O)[C@H](CO)NC(=O)[C@H](Cc1ccccc1)NC(=O)CNC(=O)[C@H](CCCNC(=N)N)NC(=O)[C@@H]1CCCN1C(=O)[C@H](C)NC(=O)[C@@H](N)CCSC)[C@@H](C)O)C(=O)N[C@@H](CC(=O)O)C(=O)N[C@@H](CC(C)C)C(=O)N1CCC[C@H]1C(=O)N[C@H](C(=O)N[C@@H](CCCCN)C(=O)N[C@@H](CCCNC(=N)N)C(=O)N[C@@H](CCCNC(=N)N)C(=O)N[C@@H](C)C(=O)O)C(C)C [HN],"CP-induced apoptosis, effect of concomitant HN",[6]; early-late stages,ameliorated
same,"CP-induced apoptosis, effect of concomitant HN",[6]; middle stages (V-VIII),not significantly decreased
same,"CP-induced germ cell apoptosis, effect of HN","[6]; testicular cross sections, HN 40 mg/Kg + CP 200 mg/Kg IP, 24 hours",attenuated
same,"EDS-induced Leydig cell loss, effect of HN",[7],did not reverse
same,"CP effects in EDS pre-treated animals, effect of HN",[8]; early and late stages,did not change
same,"germ cell apoptosis after EDS, addition of HN","[8]; early and late stages, EDS pre-treated",did not significantly reduced
same,"CP-induced apoptosis, HN co-treatment","[8]; early and late stages, no EDS, HN 40 mg/kg BW IP",significantly reduced
same,effect of HN on CP treated testis,"[8]; middle (VII-VIII) stages, no EDS",no effect
same,"increase in apoptosis in CP+EDS group, concomitant HN",[8]; middle stages,reduced
same,"EDS-induced apoptosis of germ cells, effect of HN","[8]; middle stages, HN 3 days after EDS",significantly reduced
